Assay results published in paper PMC9803678.
Changes are numbered by the printed parent chain. No constants are given. Whether binding was seen depends on the method and setting. In cells and extracts the contact can be indirect. Binding can be weak; no strength is given. Where a sequence is shown, tags or fusion partners need not be part of it.

Legend:
Myc-SNAPIN = molecular target: T1, Myc-SNAPIN (UniProt O95295); experiment: co-IP; HEK293 cells transfected 24 h with Myc-SNAPIN (WT, T14A or T14E) and GFP-Dynein, HA-Dynein A or HA-Dynein B, with or without Flag-DYRK3-WT or Flag-DYRK3-KM; some cells treated 6 h with 1 uM GSK-626616 or 6 h with DMEM (serum deprivation); lysates immunoprecipitated with anti-Myc antibody …
T1 sequence: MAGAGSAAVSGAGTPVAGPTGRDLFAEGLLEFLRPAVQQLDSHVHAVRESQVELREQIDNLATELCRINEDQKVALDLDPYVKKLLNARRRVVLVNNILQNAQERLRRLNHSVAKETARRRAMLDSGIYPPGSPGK

Myc-SNAPIN-T14E = molecular target: T2, Myc-SNAPIN-T14E (UniProt O95295); experiment: as above
T2 sequence: T1 sequence with T14E

binding (Myc-SNAPIN) | binding (Myc-SNAPIN-T14E) | Substance
binds | binds | GFP-Dynein
binds | – | HA-Dynein A
binds | – | HA-Dynein B
